PubChem BioAssay AID1259405, NCATS | 2018
Aim: 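Silenced genes that increase secreted GFP made by CHO cells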 (primary screen). Cell system: Chinese hamster CHO-K1 ovary cells with stable secreted eGFP expression. Knock-down reagent: single siRNA against mouse genes, 0.8 pmol siRNA per well (2 µl of 400 nM stock). Timing: 3 days. Detection: 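Percent of the per-plate non-targeting control median for intracellular GFP per well by laser scanning cytometry and for cell viability by ATP luminescence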. Scale: GFP, % of control: higher = more GFP per well, higher productivity; viability (ATP), % of control: higher = more viable cells (more ATP). Rule for the call: 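Called active when intracellular GFP, relative to negative control, is at or above 120%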.
Here is a random part of about 50,000 reagents. Over the whole deposit, about 4,000 (8%) are marked active. 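Mouse siRNA library applied to hamster cells; one well for each siRNA.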 Entries without a mark were called inactive. The numbers tell different reagents against one gene apart. Reagent sequences are not shown.

Gene	reagent no.	GFP, % of control	viability (ATP), % of control
Ndufs8	1	74.4	67.4
Ndufs8	2	86.5	69
Ndufs8	3	89.4	81.6
Tcl1b2	1	108	70.7
Tcl1b2	2	91.3	118
Tcl1b2	3	156 (active)	138
Or8b35	1	79.7	70.9
Or8b35	2	90.5	37.5
Or8b35	3	88.9	111
Ddit4	1	65.4	96.1
Ddit4	2	96.9	70.8
Ddit4	3	127 (active)	46.2
Lmx1b	1	96	88.5
Lmx1b	2	69.6	82.5
Lmx1b	3	89.3	95.7
Scube2	1	95.5	121
Scube2	2	125 (active)	87.7
Them5	1	70.2	74.8
Them5	2	49	90.8
Them5	3	60.8	55
Fam110a	1	97.8	44.5
Fam110a	2	92.8	87.1
Fam110a	3	90.8	103
Adhfe1	1	74.7	66
Adhfe1	2	78.6	68
Adhfe1	3	83.6	75.7
D630029K05Rik	1	59.1	85.3
D630029K05Rik	2	29.7	57.4
D630029K05Rik	3	102	96.9
Gm4827	1	87.4	53.5
Gm4827	2	69.8	70.8
Gm4827	3	44.4	92.6
Ccdc166	1	74.7	75.2
Ccdc166	2	79.7	82.7
Ccdc166	3	107	72.9
Egr3	1	87.7	85.1
Egr3	2	95.7	87.9
Cops8	1	54.2	86.6
Cops8	2	43.1	68.7
Cops8	3	69.1	96.3

Reagents above called active, once more:
Gene	reagent no.	GFP, % of control	viability (ATP), % of control
Tcl1b2	3	156 (active)	138
Ddit4	3	127 (active)	46.2
Scube2	2	125 (active)	87.7

Next entries follow:
Gene	reagent no.	GFP, % of control	viability (ATP), % of control
Mars2	1	75.8	88.5
Mars2	2	103	91.6
Ywhae	1	67	78.3
Ywhae	2	33.3	36.1
Ywhae	3	83.4	61
H2-Aa	1	73.5	60
H2-Aa	2	35.4	35.8
H2-Aa	3	30.7	27
Clca4a	1	152 (active)	97.2
Clca4a	2	60	79.3
Clca4a	3	80.7	95.4
Cav3	1	72.5	78.1
Cav3	2	113	104
Cav3	3	25.1	21.4
Mxd1	1	82.4	87.4
Mxd1	2	77.9	84.2
Mxd1	3	54.1	70.5
B4galt2	1	56.2	50.6
B4galt2	2	71	72.2
B4galt2	3	75.5	55.7
8030451A03Rik	1	14.5	33.6
8030451A03Rik	2	104	104
8030451A03Rik	3	138 (active)	151
Bmyc	1	30.5	23.7
Bmyc	2	90	33.4
Bmyc	3	82.2	106
Pdcl	1	76.7	117
Pdcl	2	78.2	96.1
Mybl1	1	39.1	43.8
Mybl1	2	63.8	63.7
Mybl1	3	78	85.7
Arhgap28	1	79.2	81
Arhgap28	2	95.9	68.6
Arhgap28	3	46.9	66.3
Timcc	1	92.6	87.8
Timcc	2	82.9	87.4
Timcc	3	90.6	90.3
Dnaja1	1	83.6	86.6
Dnaja1	2	86	78.1
Dnaja1	3	58.5	104
Ociad1	1	121 (active)	103
Ociad1	2	76.1	87.7
Ociad1	3	62.6	115
Gtpbp3	1	84.5	75.9
Gtpbp3	2	91.4	80.3
Gtpbp3	3	89.8	55.4
